For at least one entry, the source does not settle the construct or the ends of the probe.

This series relates to 71F12 Fab (human (acute SLE patient)). The experiment in a line: crystal structure. The conditions noted are these: 2.10 A, trinucleotide T0, T-1, T-2 visible; recombinant protein; single-stranded DNA.

In the case of TTTTT [5-mer T5], the binding result is “binds”.

The values above are taken from paper PMC5703881.
